Measured values from article doi:10.1101/2025.04.12.648552.

By UniProt entry, the sequences of proteins in these tests, tags left out.
UniProt Q07243: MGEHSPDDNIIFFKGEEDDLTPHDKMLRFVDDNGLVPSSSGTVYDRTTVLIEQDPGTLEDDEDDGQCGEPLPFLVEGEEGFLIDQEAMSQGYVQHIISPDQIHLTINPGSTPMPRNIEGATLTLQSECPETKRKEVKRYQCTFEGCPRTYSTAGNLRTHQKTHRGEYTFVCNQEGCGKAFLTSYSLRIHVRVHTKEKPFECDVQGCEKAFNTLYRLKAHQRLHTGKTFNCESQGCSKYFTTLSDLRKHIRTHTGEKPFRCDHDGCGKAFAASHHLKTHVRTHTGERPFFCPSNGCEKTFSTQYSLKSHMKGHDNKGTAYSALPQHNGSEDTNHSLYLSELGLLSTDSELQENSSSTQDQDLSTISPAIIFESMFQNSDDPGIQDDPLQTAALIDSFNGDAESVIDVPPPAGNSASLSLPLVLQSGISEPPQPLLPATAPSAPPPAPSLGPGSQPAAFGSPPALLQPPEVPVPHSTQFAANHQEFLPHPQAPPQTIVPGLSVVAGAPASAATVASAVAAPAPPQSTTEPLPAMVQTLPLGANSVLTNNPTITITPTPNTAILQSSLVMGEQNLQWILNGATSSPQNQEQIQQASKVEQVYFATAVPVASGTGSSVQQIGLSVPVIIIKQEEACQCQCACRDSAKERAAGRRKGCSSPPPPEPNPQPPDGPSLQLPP
UniProt Q8BSQ9: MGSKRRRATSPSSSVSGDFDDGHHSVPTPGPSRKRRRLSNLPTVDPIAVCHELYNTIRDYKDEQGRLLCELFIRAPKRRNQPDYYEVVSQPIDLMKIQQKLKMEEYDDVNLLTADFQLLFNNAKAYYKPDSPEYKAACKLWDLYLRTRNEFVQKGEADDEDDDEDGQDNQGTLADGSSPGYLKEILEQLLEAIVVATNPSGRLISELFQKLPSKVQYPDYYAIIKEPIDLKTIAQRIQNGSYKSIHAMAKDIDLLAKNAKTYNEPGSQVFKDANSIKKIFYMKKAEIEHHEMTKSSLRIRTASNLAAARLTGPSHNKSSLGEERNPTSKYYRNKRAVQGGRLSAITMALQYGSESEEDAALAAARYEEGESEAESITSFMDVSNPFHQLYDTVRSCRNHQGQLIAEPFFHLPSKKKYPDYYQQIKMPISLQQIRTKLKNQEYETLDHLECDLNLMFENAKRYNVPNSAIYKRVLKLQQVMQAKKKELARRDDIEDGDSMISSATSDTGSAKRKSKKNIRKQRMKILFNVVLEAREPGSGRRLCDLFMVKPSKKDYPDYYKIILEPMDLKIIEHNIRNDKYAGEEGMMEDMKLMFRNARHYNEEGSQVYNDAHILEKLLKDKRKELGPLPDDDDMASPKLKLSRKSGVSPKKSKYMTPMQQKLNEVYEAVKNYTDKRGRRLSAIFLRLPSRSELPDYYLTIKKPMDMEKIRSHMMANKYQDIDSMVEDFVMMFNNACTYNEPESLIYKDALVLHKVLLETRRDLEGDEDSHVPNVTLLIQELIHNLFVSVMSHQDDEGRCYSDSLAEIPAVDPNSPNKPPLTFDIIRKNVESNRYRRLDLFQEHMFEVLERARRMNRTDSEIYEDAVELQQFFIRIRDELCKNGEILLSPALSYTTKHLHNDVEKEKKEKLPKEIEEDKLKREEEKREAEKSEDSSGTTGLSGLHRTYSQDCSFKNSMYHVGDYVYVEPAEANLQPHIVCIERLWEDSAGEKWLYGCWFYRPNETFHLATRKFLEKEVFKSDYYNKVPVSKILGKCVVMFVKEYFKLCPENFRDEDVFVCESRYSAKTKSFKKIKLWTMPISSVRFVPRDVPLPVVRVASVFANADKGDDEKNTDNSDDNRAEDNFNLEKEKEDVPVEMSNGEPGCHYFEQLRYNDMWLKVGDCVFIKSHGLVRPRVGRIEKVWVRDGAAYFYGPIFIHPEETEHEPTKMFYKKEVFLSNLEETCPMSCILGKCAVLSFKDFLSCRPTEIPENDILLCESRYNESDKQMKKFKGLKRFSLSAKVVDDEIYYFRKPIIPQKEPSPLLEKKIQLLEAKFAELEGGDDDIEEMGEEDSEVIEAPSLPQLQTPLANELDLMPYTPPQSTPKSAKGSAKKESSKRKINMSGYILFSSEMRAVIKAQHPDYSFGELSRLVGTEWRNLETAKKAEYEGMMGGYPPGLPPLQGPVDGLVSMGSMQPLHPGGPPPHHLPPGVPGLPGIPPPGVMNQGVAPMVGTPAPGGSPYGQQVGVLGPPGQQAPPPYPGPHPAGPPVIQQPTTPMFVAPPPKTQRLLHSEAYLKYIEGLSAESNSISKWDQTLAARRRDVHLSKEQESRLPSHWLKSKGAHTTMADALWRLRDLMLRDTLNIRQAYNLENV
UniProt A2BH40: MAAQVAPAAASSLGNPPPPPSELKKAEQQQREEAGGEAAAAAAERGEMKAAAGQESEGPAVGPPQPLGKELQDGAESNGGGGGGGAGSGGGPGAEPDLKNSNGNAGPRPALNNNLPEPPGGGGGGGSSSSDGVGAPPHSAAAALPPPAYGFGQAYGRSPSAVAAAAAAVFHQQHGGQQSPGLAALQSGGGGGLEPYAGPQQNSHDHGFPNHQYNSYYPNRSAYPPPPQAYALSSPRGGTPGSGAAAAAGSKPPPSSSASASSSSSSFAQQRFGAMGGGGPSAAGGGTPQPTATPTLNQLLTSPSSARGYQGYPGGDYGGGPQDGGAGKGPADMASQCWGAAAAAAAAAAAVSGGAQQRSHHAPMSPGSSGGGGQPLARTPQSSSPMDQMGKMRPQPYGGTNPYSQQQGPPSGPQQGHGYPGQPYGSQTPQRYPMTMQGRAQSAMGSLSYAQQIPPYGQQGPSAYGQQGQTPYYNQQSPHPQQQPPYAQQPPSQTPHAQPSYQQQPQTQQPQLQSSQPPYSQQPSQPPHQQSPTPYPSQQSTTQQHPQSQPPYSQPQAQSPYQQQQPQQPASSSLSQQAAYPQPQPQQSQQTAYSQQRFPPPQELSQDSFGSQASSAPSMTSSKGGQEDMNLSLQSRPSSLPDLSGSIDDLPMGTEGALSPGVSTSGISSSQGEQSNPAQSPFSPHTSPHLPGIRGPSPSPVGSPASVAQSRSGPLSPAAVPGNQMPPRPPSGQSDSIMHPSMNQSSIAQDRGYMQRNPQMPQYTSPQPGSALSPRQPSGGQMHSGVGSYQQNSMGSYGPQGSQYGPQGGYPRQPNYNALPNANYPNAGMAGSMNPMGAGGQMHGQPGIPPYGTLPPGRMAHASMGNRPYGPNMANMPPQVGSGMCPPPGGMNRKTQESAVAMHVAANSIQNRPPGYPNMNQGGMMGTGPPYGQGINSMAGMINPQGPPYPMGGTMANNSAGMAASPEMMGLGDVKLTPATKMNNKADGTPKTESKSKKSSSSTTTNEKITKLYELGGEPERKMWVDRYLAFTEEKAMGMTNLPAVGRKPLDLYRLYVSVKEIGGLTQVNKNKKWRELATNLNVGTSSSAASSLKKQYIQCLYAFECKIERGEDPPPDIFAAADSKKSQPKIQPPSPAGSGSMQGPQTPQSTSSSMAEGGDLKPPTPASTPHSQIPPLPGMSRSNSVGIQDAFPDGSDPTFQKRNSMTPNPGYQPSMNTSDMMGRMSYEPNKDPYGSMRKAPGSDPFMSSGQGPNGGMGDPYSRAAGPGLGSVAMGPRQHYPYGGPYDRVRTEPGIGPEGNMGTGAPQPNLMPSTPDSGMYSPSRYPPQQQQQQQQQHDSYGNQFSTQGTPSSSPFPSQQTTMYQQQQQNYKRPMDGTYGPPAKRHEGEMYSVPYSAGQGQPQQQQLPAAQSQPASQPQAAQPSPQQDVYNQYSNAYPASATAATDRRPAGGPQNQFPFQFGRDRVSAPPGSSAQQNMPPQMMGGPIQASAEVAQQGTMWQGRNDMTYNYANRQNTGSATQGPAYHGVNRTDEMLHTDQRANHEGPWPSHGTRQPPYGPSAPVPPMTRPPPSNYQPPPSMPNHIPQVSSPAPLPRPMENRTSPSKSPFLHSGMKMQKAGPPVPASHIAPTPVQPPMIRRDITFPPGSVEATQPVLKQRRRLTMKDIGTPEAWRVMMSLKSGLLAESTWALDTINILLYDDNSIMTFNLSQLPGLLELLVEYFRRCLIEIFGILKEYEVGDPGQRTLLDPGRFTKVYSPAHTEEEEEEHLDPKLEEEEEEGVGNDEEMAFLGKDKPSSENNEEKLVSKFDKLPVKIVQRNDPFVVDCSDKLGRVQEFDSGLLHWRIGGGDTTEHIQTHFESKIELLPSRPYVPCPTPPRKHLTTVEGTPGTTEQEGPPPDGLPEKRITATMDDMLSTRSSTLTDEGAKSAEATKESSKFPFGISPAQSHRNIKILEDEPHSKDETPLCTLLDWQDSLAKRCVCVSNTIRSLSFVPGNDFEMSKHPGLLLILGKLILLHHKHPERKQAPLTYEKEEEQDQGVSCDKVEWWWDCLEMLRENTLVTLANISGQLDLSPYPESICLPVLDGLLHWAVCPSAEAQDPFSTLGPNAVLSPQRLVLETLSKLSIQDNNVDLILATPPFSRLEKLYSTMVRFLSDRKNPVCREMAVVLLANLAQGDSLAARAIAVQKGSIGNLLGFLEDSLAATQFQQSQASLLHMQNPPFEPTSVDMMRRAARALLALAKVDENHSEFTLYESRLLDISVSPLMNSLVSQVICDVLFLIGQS
UniProt Q3TKT4: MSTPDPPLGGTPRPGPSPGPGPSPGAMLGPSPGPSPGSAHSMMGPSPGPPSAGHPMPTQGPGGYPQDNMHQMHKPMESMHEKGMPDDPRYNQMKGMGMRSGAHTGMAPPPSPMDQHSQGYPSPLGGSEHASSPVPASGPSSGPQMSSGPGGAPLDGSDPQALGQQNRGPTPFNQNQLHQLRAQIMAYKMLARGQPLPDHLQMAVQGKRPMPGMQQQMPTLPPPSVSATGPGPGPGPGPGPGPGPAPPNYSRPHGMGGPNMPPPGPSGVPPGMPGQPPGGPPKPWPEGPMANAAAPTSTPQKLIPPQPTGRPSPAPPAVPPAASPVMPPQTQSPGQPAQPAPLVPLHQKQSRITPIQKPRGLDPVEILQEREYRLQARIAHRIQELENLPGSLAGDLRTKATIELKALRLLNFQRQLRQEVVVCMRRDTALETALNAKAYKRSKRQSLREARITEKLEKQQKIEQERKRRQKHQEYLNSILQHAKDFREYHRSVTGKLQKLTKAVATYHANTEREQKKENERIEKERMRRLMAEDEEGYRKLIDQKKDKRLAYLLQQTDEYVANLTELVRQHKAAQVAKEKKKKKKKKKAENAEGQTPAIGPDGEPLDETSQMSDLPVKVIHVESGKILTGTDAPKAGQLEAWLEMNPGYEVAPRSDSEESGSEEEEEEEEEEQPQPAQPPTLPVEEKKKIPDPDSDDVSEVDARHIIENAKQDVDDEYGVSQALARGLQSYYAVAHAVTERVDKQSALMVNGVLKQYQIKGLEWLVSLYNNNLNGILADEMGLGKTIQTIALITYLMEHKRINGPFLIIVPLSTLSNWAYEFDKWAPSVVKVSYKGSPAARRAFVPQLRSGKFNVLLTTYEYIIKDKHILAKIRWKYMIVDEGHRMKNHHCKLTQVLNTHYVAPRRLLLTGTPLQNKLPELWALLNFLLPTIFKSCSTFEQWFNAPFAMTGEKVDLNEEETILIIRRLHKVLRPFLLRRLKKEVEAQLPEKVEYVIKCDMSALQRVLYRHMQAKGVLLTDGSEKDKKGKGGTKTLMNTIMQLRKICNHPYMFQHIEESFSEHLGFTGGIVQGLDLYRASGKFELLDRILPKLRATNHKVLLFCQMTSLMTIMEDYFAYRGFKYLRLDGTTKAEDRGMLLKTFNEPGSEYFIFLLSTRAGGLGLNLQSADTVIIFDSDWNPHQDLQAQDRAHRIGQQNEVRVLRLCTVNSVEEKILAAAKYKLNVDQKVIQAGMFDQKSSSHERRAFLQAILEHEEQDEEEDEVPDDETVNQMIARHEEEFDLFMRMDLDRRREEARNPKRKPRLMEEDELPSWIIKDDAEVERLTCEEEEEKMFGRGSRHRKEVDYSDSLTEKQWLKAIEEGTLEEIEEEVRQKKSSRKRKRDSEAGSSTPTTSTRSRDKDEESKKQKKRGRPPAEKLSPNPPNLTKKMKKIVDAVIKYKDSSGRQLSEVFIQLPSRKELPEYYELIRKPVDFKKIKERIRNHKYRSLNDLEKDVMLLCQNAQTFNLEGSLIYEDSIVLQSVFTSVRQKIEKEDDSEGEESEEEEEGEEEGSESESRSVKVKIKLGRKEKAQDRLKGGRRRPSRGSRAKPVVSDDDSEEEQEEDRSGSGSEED

Target: Mtf1 (metal-responsive transcription factor) (mouse (endogenous in C2C12)) (UniProt Q07243)
Test: affinity purification with mass spectrometry

Row | Substance | binding
1 | Baf180 (PBAF-specific SWI/SNF subunit) (from UniProt Q8BSQ9 1-1634) | binds
2 | Baf250a (BAF-specific SWI/SNF subunit) (from UniProt A2BH40 1-2283) | binds
3 | Brahma-related gene 1 (Brg1) (from UniProt Q3TKT4 1-1613) | binds

These are yes or no findings as the source states them, for the method shown. In cells and extracts the contact can be indirect. These calls come from enrichment with a bait or labelling near it, and not all partners need be listed.
